The results are deposited in PubChem (AID504749; NCATS, 2011).

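Malaria parasite (P. falciparum) lines kept in red blood cells; parasite DNA is measured by SYBR Green fluorescence after lysis, 72 h after compound addition. Each compound was titrated across a series from about 0.000037 to 29 µM. The number is the fitted AC50, the concentration giving a half-maximal change in signal; a lower value means higher potency, whether the curve shows a decrease or an increase. Calls follow the curve class and fit quality: every row here is inconclusive, covering signal-raising curves and weak, poorly fitted, partial or highest-dose-only inhibition curves.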

Values are in µM. Every entry below has the call inconclusive. These entries are mostly ones the record files as inconclusive; other results of the assay are not listed here. Potencies fitted to partial, single-point or poorly fitting curves are rough.

{"smiles": "CC#C[C@]1(O)CC[C@H]2[C@@H]3CCC4=CC(=O)CCC4=C3[C@@H](c3ccc(N(C)C)cc3)C[C@@]21C", "condition": "CP262", "potency (µM)": "19.01", "remark": "inhibitor, single point"}
{"smiles": "CC#C[C@]1(O)CC[C@H]2[C@@H]3CCC4=CC(=O)CCC4=C3[C@@H](c3ccc(N(C)C)cc3)C[C@@]21C", "condition": "ATS95", "potency (µM)": "10", "remark": "inhibitor, single point"}
{"smiles": "CC#C[C@]1(O)CC[C@H]2[C@@H]3CCC4=CC(=O)CCC4=C3[C@@H](c3ccc(N(C)C)cc3)C[C@@]21C", "condition": "CP260", "potency (µM)": "12.59", "remark": "inhibitor, single point"}
{"smiles": "CC#C[C@]1(O)CC[C@H]2[C@@H]3CCC4=CC(=O)CCC4=C3[C@@H](c3ccc(N(C)C)cc3)C[C@@]21C", "condition": "CP286", "potency (µM)": "11.22", "remark": "inhibitor, single point"}
{"smiles": "CC#C[C@]1(O)CC[C@H]2[C@@H]3CCC4=CC(=O)CCC4=C3[C@@H](c3ccc(N(C)C)cc3)C[C@@]21C", "condition": "PC49", "potency (µM)": "10", "remark": "inhibitor, single point"}
{"smiles": "CC#C[C@]1(O)CC[C@H]2[C@@H]3CCC4=CC(=O)CCC4=C3[C@@H](c3ccc(N(C)C)cc3)C[C@@]21C", "condition": "JCK", "potency (µM)": "14.13", "remark": "inhibitor, single point"}
{"smiles": "CC#C[C@]1(O)CC[C@H]2[C@@H]3CCC4=CC(=O)CCC4=C3[C@@H](c3ccc(N(C)C)cc3)C[C@@]21C", "condition": "FAB9", "potency (µM)": "17.78", "remark": "inhibitor, single point"}
{"smiles": "CC#C[C@]1(O)CC[C@H]2[C@@H]3CCC4=CC(=O)CCC4=C3[C@@H](c3ccc(N(C)C)cc3)C[C@@]21C", "condition": "CP252", "potency (µM)": "10", "remark": "inhibitor, single point"}
{"smiles": "CC#C[C@]1(O)CC[C@H]2[C@@H]3CCC4=CC(=O)CCC4=C3[C@@H](c3ccc(N(C)C)cc3)C[C@@]21C", "condition": "C2A", "potency (µM)": "15.85", "remark": "inhibitor, single point"}
{"smiles": "CC#C[C@]1(O)CC[C@H]2[C@@H]3CCC4=CC(=O)CCC4=C3[C@@H](c3ccc(N(C)C)cc3)C[C@@]21C", "condition": "CP250", "potency (µM)": "15.85", "remark": "inhibitor, single point"}
{"smiles": "CC#C[C@]1(O)CC[C@H]2[C@@H]3CCC4=CC(=O)CCC4=C3[C@@H](c3ccc(N(C)C)cc3)C[C@@]21C", "condition": "P94_40", "potency (µM)": "10", "remark": "inhibitor, single point"}
{"smiles": "CC#C[C@]1(O)CC[C@H]2[C@@H]3CCC4=CC(=O)CCC4=C3[C@@H](c3ccc(N(C)C)cc3)C[C@@]21C", "condition": "CP315", "potency (µM)": "19.01", "remark": "inhibitor, single point"}
{"smiles": "CC#C[C@]1(O)CC[C@H]2[C@@H]3CCC4=CC(=O)CCC4=C3[C@@H](c3ccc(N(C)C)cc3)C[C@@]21C", "condition": "DFO2036", "potency (µM)": "10", "remark": "inhibitor, single point"}
{"smiles": "CC#C[C@]1(O)CC[C@H]2[C@@H]3CCC4=CC(=O)CCC4=C3[C@@H](c3ccc(N(C)C)cc3)C[C@@]21C", "condition": "CP256", "potency (µM)": "11.22", "remark": "inhibitor, single point"}
{"smiles": "CC#C[C@]1(O)CC[C@H]2[C@@H]3CCC4=CC(=O)CCC4=C3[C@@H](c3ccc(N(C)C)cc3)C[C@@]21C", "condition": "ATS189", "potency (µM)": "11.22", "remark": "inhibitor, single point"}
{"smiles": "CC#C[C@]1(O)CC[C@H]2[C@@H]3CCC4=CC(=O)CCC4=C3[C@@H](c3ccc(N(C)C)cc3)C[C@@]21C", "condition": "CP266", "potency (µM)": "16.94", "remark": "inhibitor, single point"}
{"smiles": "CC#C[C@]1(O)CC[C@H]2[C@@H]3CCC4=CC(=O)CCC4=C3[C@@H](c3ccc(N(C)C)cc3)C[C@@]21C", "condition": "CP325", "potency (µM)": "19.01", "remark": "inhibitor, single point"}
{"smiles": "CNCCC=C1c2ccccc2CCc2ccccc21", "condition": "PAD", "potency (µM)": "7.08", "remark": "inhibitor, partial curve"}
{"smiles": "CNCCC=C1c2ccccc2CCc2ccccc21", "condition": "CP201", "potency (µM)": "12", "remark": "inhibitor, partial curve, poor fit"}
{"smiles": "CNCCC=C1c2ccccc2CCc2ccccc21", "condition": "CP266", "potency (µM)": "15.1", "remark": "inhibitor, single point"}
{"smiles": "CNCCC=C1c2ccccc2CCc2ccccc21", "condition": "CP252", "potency (µM)": "7.943", "remark": "inhibitor, partial curve"}
{"smiles": "CNCCC=C1c2ccccc2CCc2ccccc21", "condition": "CP260", "potency (µM)": "8.912", "remark": "inhibitor, partial curve"}
{"smiles": "CNCCC=C1c2ccccc2CCc2ccccc21", "condition": "CP215", "potency (µM)": "7.569", "remark": "inhibitor, partial curve"}
{"smiles": "CNCCC=C1c2ccccc2CCc2ccccc21", "condition": "CP194", "potency (µM)": "9.528", "remark": "inhibitor, partial curve"}
{"smiles": "CNCCC=C1c2ccccc2CCc2ccccc21", "condition": "CP185", "potency (µM)": "10", "remark": "inhibitor, single point"}
{"smiles": "CNCCC=C1c2ccccc2CCc2ccccc21", "condition": "CP291", "potency (µM)": "12", "remark": "inhibitor, partial curve"}
{"smiles": "CNCCC=C1c2ccccc2CCc2ccccc21", "condition": "CP305", "potency (µM)": "4.776", "remark": "inhibitor, partial curve, poor fit"}
{"smiles": "CNCCC=C1c2ccccc2CCc2ccccc21", "condition": "ECU", "potency (µM)": "11.22", "remark": "inhibitor, single point"}

3 of the entries, repeated:

CNCCC=C1c2ccccc2CCc2ccccc21 [CP260] gave potency 8.912 µM (inhibitor, partial curve).
CC#C[C@]1(O)CC[C@H]2[C@@H]3CCC4=CC(=O)CCC4=C3[C@@H](c3ccc(N(C)C)cc3)C[C@@]21C [ATS189] gave potency 11.22 µM (inhibitor, single point).
CNCCC=C1c2ccccc2CCc2ccccc21 [CP185] gave potency 10 µM (inhibitor, single point).